No constants are given. Whether binding was seen depends on the method and setting. Binding seen in cells or lysates may run through a third protein. Some binding calls cover weakened binding; strength is not graded here.
Assays:
Assay in all cases: proximity ligation; fixed, permeabilised cultured mouse cortical (and cerebellar) neurons from wild-type or L1 mutant mice; mouse L1 antibody C-2 with goat or rabbit antibodies against the partner, or rabbit L1 antibody ab12399 with mouse antibodies; cells treated with vehicle, 1 µM aprotinin, 50 µg/mL L1 antibody 557 or siRNAs
[1] = target: T1, nucleoporin 93 kDa (Nup93), endogenous mouse (mouse (endogenous in cultured cortical neurons)) (UniProt Q8BJ71)
T1 sequence: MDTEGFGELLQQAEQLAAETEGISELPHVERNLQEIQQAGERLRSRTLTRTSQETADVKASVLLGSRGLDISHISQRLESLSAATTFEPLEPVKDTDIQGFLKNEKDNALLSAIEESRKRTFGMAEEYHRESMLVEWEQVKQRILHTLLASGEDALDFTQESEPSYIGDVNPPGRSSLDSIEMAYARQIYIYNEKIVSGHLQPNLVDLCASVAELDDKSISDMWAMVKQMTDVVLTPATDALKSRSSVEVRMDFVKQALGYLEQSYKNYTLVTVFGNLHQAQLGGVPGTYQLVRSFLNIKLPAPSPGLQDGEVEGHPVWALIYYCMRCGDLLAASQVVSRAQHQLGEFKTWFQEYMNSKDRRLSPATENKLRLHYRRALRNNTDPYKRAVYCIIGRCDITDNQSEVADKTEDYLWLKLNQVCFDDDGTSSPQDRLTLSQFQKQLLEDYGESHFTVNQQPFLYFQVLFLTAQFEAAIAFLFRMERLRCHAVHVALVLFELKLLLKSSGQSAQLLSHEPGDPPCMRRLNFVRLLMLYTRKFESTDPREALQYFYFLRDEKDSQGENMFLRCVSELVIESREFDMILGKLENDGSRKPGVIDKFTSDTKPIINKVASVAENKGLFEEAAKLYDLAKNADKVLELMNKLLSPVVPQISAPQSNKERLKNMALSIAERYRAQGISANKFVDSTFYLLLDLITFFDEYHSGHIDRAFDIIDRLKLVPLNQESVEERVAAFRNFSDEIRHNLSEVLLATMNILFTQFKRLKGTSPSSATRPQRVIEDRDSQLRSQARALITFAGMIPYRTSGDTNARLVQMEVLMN

Sequences of proteins named here, by UniProt entry; tags and fusion partners are left off. Residues count along the entry.
UniProt P19785: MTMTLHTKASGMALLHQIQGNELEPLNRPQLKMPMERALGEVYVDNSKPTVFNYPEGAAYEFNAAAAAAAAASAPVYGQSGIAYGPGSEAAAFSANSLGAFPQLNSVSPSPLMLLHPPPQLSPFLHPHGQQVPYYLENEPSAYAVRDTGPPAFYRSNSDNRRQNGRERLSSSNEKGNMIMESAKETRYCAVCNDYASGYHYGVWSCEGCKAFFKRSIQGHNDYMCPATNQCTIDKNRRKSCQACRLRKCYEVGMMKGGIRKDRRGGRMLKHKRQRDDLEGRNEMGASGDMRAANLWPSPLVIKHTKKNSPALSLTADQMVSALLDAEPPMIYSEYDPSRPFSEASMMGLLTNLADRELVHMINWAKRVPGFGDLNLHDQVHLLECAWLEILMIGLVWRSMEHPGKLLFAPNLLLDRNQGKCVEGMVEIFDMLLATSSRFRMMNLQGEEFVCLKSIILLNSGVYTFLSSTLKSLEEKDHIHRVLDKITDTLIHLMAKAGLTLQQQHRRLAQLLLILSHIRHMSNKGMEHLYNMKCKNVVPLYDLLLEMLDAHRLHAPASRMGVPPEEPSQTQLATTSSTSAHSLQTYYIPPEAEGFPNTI
UniProt P11627, residues 20-1260: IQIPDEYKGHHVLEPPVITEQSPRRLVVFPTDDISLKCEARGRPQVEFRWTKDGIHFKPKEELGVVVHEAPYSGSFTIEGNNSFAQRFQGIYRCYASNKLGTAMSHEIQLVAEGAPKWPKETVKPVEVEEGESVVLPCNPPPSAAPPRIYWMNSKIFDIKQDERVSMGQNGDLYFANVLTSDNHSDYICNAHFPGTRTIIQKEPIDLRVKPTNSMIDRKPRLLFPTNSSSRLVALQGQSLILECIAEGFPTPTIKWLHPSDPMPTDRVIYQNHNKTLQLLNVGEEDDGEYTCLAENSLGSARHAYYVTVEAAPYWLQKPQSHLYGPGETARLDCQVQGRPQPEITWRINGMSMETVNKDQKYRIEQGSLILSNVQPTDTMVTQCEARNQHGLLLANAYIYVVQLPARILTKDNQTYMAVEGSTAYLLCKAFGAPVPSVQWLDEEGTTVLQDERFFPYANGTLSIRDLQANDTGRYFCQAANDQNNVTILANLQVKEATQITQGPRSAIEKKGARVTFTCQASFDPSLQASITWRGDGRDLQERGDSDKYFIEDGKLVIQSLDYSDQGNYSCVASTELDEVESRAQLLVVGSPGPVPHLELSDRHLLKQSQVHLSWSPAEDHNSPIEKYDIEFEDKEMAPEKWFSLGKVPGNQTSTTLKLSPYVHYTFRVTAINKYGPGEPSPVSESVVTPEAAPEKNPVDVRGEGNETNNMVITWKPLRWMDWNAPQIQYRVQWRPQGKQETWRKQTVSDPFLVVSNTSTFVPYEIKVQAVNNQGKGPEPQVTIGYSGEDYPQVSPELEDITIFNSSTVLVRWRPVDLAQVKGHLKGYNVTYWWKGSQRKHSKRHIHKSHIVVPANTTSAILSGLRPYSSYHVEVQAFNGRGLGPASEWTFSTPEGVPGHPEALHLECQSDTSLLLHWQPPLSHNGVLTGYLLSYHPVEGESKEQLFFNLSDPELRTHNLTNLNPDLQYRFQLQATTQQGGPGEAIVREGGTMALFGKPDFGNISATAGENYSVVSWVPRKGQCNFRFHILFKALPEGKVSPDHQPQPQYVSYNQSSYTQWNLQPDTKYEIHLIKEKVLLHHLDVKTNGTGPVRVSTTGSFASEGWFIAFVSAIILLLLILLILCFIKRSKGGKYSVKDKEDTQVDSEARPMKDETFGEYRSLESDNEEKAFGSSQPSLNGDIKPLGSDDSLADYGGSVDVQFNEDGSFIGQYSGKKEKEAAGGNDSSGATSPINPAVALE

[2] = target: T2, topoisomerase 1 (TOP1), endogenous mouse (mouse (endogenous in brain and cultured neurons)) (UniProt Q04750)
T2 sequence: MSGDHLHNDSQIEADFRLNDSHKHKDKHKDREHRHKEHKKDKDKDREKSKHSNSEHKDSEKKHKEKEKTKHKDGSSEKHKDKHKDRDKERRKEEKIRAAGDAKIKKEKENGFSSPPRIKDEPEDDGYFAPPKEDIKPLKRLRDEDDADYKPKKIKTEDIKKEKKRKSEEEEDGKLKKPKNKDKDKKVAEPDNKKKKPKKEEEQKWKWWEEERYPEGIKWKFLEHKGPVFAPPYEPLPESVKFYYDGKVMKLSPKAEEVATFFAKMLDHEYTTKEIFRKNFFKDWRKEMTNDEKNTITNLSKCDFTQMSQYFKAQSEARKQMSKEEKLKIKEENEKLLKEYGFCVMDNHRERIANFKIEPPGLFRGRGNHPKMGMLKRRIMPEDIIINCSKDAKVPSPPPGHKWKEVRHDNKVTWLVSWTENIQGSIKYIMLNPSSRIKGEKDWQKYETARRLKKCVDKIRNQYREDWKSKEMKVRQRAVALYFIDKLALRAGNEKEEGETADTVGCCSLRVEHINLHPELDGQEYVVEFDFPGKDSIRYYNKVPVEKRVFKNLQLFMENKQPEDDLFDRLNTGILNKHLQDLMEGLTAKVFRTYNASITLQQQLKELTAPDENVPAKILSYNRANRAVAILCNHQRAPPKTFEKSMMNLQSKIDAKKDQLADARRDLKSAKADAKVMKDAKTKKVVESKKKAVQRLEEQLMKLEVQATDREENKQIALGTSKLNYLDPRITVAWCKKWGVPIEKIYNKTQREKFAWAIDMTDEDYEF

[3] = target: T3, vitamin D receptor (VDR), endogenous mouse (mouse (endogenous in cultured cortical neurons)) (UniProt P48281)
T3 sequence: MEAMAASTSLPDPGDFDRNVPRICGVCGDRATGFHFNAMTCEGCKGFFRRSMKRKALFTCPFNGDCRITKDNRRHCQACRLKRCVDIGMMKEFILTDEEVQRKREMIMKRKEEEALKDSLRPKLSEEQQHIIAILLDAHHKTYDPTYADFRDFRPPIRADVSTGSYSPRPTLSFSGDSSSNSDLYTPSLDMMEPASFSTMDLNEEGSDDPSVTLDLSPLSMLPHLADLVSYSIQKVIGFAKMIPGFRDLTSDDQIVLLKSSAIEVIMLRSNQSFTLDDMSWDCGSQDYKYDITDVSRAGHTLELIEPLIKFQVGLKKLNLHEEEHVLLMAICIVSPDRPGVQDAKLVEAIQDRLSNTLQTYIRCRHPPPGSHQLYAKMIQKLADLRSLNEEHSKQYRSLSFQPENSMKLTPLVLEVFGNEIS

[4] = target: estrogen receptor α (ERα), endogenous mouse (mouse (endogenous in cultured cortical neurons)) (UniProt P19785)

binding [1]: binds | binding [2]: binds | binding [3]: binds | binding [4]: binds
Substance: cell adhesion molecule L1, endogenous in wild-type mouse neurons (from UniProt P11627 20-1260)
